What follows is the remainder of the data, with few or none of the hits. Records with an inconclusive call do not appear. Activity calls are given as the source filed them. Calls come from the whole dose curve; tested in HEK293T cells.
Assay: High Throughput Screening for Foot and Mouth Disease Virus Antivirals; note: read-out not given here; nearly all actives have a fitted effect of over 45% in size
Settings: FMDV antiviral cell-based qHTS; at 57.9 µM (top of the series)
% is set by controls: 0 for no effect and ±100 for the full control effect.

| SMILES | activity change, negative = inhibition |
| --- | --- |
| O=c1ccc2ccc(OCc3ccccc3)cc2o1 | inactive: 21.1% |

— PubChem BioAssay AID1159524 (National Center for Advancing Translational Sciences (NCATS), 2015)
